In publication PMC10447549:
Results are given in words; binding and its absence hold for the method and conditions named. Binding seen in cells or lysates may run through a third protein. A yes stands for co-enrichment or nearness to the bait. Other partners may have been found.

The chains behind the UniProt entries cited, without tags or fusion partners.
UniProt Q8R0K9: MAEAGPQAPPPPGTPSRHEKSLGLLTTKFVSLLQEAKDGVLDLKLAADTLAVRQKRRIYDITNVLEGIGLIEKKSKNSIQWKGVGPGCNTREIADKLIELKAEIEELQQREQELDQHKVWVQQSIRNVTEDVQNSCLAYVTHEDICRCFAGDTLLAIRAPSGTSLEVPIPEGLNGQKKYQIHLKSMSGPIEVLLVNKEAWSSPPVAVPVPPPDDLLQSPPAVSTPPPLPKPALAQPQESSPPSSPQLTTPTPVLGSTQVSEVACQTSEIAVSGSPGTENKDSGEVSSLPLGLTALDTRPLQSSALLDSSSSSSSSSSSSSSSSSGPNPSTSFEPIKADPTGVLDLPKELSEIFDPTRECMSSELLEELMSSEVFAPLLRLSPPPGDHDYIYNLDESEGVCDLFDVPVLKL
UniProt A2BH40: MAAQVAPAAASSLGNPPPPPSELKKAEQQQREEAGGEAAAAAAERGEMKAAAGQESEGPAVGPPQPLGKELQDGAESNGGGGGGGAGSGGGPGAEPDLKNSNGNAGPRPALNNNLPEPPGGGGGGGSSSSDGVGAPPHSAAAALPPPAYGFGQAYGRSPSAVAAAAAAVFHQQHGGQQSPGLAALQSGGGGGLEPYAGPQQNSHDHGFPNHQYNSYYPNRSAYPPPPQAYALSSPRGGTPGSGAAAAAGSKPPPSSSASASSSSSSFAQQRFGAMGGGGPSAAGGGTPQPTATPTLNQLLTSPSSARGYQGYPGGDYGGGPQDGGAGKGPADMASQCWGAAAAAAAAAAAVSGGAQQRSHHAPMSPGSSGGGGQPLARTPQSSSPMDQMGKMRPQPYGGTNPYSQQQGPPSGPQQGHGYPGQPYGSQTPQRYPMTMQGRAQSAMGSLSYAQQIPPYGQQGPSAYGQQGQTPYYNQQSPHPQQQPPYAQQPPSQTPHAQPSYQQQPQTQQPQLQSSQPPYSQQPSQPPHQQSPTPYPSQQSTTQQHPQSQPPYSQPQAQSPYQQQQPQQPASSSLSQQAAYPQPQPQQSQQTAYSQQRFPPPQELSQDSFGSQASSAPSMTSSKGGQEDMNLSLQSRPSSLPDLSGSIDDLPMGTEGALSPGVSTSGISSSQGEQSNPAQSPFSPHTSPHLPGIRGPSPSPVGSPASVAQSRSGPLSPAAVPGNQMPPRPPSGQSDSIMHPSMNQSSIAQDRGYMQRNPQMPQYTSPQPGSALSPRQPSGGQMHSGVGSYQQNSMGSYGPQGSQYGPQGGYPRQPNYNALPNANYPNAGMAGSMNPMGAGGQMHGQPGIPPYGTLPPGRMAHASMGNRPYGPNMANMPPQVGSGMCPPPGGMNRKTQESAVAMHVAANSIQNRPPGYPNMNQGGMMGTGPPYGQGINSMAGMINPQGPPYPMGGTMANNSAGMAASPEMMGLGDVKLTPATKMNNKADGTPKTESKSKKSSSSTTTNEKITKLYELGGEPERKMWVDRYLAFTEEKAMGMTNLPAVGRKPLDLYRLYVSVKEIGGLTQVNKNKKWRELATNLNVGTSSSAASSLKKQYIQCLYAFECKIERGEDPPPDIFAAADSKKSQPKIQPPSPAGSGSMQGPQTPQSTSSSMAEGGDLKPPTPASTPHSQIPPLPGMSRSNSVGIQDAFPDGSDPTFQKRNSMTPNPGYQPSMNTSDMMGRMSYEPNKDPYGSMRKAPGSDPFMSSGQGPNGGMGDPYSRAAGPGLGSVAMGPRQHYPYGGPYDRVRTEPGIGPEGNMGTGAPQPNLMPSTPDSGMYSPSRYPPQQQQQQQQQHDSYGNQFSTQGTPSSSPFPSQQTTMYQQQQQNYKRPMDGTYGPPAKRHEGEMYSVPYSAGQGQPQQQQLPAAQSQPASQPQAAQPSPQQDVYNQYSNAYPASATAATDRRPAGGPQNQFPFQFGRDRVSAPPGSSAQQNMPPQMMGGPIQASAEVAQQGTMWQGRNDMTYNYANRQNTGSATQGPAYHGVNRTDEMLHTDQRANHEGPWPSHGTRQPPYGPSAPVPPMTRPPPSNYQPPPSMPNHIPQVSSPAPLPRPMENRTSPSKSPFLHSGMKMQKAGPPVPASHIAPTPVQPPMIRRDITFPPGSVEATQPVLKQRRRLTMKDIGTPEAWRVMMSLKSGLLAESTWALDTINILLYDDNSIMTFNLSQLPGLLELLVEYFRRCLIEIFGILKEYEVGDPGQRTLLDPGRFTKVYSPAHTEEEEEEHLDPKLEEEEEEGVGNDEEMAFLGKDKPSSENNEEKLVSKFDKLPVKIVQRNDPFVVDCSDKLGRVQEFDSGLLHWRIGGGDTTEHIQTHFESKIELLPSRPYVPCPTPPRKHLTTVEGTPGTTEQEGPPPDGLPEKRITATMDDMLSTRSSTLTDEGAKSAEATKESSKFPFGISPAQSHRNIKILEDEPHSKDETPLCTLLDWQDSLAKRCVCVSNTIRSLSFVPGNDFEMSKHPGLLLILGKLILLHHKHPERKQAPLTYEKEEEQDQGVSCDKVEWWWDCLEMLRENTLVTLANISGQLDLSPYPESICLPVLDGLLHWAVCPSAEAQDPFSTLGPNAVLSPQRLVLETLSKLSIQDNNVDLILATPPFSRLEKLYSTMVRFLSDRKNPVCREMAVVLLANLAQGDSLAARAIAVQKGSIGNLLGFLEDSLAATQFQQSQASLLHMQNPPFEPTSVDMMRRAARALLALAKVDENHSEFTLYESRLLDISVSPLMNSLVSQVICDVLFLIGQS

Target: transcription factor E2f4 (endogenous, mouse) (mouse (endogenous in p19/Nras)) (UniProt Q8R0K9)
Experiment: affinity purification with mass spectrometry; IP of endogenous E2f4 (Proteintech 10923-1-AP) against isotype control IgG from TNT-150 lysates of Trim33-WT and Trim33-KO p19/Nras cells, LC-MS/MS, three independent reactions

In the case of “Arid1a (endogenous, mouse) (from UniProt A2BH40 1-2283)”, the binding is reported as “binds”.
